This assay has as its target Forkhead box O1 (FOXO1) (mouse (endogenous in AML12)), Q9R1E0. Kind of assay: co-IP. Particulars: remark: other sources report otherwise.

No constants are given. Whether binding was seen depends on the method and setting. Binding seen in cells or lysates may run through a third protein.

B1: SMAD3, Q8BUN5 1-425 (protein)
chain: MSSILPFTPPIVKRLLGWKKGEQNGQEEKWCEKAVKSLVKKLKKTGQLDELEKAITTQNVNTKCITIPRSLDGRLQVSHRKGLPHVIYCRLWRWPDLHSHHELRAMELCEFAFNMKKDEVCVNPYHYQRVETPVLPPVLVPRHTEIPAEFPPLDDYSHSIPENTNFPAGIEPQSNIPETPPPGYLSEDGETSDHQMNHSMDAGSPNLSPNPMSPAHNNLDLQPVTYCEPAFWCSISYYELNQRVGETFHASQPSMTVDGFTDPSNSERFCLGLLSNVNRNAAVELTRRHIGRGVRLYYIGGEVFAECLSDSAIFVQSPNCNQRYGWHPATVCKIPPGCNLKIFNNQEFAALLAQSVNQGFEAVYQLTRMCTIRMSFVKGWGAEYRRQTVTSTPCWIELHLNGPLQWLDKVLTQMGSPSIRCSSVS
For the molecule B1, the binding result is “no binding”.

These data come from paper doi:10.1101/2023.01.12.523351.
